11 targets from the supplement of paper PMC7666118 can be followed below.

The chains behind the UniProt entries cited, without tags or fusion partners. Where a name states a change or a piece, a line headed by the entry shows the natural chain unless it says otherwise.
UniProt P42898: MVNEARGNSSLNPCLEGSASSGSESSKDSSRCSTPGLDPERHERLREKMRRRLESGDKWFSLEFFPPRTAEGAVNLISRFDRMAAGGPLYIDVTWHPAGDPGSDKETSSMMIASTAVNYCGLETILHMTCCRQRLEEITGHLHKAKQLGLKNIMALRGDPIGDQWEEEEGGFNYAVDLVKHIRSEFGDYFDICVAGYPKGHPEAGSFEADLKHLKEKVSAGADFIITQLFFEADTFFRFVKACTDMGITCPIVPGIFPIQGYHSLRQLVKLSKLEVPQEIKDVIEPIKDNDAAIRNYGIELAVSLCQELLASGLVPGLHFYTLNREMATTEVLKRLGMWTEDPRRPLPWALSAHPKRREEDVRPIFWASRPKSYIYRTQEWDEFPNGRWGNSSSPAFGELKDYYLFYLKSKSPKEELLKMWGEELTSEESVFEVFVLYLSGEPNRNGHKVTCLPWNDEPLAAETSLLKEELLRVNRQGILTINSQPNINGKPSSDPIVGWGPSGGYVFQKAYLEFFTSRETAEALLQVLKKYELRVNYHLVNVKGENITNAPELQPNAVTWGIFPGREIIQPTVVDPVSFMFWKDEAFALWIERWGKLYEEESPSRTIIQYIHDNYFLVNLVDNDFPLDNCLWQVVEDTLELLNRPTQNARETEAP
UniProt O43181, whole entry: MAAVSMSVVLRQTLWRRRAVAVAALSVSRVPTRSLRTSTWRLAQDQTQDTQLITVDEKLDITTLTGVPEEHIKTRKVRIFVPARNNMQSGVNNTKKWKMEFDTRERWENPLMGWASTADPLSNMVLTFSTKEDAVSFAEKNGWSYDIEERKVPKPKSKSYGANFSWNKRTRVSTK
UniProt P17568, whole entry: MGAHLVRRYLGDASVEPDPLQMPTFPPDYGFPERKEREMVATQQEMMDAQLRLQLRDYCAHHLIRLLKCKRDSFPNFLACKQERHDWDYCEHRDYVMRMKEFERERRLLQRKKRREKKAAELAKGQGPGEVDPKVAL
UniProt Q9H0A0: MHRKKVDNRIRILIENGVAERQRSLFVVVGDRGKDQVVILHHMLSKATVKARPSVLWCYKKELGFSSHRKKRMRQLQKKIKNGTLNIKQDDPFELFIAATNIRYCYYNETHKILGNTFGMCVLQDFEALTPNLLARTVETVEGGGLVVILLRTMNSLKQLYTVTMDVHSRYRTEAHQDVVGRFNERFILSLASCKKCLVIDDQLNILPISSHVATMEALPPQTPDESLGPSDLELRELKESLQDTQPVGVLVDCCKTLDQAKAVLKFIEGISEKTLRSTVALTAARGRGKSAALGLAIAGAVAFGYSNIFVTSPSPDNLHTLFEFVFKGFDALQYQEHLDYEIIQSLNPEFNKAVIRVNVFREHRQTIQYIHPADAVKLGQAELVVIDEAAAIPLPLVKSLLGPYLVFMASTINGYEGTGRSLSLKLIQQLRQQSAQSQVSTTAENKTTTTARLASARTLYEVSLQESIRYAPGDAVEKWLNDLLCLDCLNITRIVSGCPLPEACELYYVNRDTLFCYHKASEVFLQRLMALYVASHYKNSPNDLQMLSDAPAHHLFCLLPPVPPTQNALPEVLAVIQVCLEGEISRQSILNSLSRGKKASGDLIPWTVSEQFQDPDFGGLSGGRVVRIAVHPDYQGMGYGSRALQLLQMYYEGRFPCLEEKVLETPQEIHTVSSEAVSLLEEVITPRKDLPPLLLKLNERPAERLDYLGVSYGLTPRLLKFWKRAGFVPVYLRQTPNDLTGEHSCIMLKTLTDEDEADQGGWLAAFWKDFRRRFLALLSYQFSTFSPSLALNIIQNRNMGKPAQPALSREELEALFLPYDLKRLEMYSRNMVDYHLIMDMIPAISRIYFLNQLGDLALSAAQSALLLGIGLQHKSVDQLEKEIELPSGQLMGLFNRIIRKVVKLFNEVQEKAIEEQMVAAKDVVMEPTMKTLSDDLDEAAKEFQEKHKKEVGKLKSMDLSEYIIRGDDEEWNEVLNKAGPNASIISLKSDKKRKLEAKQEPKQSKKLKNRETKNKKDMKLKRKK
UniProt Q9UFN0: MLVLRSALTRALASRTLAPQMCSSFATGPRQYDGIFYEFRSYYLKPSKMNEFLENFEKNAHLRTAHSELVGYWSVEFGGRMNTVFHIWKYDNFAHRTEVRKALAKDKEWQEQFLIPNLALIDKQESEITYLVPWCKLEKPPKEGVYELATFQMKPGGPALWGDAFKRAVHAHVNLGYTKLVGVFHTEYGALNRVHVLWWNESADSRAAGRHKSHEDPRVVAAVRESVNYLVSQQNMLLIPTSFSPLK
UniProt Q8NCE2: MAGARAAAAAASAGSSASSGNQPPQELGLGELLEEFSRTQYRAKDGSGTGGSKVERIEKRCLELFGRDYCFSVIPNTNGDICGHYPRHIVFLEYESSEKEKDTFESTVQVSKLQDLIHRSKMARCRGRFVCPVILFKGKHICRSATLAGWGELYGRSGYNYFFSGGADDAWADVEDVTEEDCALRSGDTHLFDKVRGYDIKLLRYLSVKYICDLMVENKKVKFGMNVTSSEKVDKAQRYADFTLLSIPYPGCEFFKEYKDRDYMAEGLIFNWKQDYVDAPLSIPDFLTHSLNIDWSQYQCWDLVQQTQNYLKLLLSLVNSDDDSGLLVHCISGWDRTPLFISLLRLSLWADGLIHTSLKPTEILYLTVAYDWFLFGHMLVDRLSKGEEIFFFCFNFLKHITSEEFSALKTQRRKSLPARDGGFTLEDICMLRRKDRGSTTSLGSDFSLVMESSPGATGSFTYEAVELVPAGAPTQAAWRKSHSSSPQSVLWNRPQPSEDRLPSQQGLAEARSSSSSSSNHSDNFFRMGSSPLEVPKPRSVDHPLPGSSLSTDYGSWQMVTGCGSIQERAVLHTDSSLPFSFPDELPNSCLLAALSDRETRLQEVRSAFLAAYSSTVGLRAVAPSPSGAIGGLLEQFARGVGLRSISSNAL
UniProt Q96DP5: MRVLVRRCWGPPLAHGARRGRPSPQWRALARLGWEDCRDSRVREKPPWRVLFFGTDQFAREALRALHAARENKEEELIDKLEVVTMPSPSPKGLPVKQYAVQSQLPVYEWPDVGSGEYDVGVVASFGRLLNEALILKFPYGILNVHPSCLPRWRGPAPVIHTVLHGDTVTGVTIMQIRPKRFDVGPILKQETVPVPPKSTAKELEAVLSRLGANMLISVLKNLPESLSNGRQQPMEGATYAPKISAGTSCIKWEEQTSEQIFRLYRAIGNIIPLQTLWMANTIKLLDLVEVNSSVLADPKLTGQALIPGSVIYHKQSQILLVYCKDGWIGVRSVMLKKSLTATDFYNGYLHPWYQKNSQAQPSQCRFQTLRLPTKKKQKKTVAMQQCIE
UniProt O95544: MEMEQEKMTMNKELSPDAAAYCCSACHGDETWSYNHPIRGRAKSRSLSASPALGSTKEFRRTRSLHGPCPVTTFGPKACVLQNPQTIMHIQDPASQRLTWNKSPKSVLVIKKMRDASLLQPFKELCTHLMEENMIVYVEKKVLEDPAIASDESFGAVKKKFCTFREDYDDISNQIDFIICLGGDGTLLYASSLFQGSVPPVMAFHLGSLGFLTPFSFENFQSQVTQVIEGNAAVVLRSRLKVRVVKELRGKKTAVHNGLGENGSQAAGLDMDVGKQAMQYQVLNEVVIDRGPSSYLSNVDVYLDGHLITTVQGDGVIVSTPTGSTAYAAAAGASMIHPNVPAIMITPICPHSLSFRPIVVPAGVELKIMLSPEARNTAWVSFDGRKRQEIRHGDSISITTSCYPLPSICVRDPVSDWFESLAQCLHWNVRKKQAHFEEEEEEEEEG
UniProt Q9NXD2: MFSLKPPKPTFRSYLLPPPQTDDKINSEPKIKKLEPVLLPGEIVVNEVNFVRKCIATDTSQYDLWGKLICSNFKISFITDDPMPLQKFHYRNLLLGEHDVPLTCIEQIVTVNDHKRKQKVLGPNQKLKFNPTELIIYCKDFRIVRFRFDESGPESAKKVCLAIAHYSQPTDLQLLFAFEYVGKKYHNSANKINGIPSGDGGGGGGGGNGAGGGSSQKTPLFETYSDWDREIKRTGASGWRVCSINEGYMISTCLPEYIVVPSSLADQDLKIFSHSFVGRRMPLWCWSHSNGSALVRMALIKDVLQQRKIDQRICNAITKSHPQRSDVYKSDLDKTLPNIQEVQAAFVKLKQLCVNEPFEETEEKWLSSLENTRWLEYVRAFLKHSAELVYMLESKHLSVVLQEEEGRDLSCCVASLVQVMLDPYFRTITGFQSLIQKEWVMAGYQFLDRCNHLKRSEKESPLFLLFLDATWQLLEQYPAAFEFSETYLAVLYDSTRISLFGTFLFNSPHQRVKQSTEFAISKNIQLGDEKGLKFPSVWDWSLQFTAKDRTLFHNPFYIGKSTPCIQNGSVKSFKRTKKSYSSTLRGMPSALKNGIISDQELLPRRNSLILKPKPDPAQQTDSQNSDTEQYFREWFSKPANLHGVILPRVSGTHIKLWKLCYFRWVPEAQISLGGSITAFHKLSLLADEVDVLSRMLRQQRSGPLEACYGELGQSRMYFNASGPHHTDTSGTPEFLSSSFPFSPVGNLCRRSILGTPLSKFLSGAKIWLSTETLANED
UniProt Q9UHQ1: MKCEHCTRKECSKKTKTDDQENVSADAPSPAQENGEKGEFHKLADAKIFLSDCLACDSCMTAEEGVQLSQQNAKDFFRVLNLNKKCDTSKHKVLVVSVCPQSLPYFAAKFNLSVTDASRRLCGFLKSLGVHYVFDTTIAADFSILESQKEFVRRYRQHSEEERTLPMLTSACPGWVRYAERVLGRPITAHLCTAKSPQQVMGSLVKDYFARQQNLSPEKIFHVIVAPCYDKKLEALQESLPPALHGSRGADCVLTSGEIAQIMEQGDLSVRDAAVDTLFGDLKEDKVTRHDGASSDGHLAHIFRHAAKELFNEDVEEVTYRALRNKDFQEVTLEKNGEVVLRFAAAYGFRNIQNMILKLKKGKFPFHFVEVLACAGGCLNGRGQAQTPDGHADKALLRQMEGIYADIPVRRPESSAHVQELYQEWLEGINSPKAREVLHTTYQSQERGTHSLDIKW
UniProt O43678, whole entry: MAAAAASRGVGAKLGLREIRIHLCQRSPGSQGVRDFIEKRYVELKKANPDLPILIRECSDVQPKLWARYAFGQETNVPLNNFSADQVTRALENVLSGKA

The other results are listed elsewhere or left out.

Compound in the experiment: COc1ccc(Cn2ccc3ccc(C(=O)NO)cc32)cc1
The experiment can be described thus: dose-dependent thermal stabilisation call (2D-TPP, DLPTP, 10% FDR) (binary (1 = stabilised)); higher = stabilised by the compound. Conditions: system: HL-60 intact cells; concentration range 0.04-10 µM.
Turning to MTHFR (UniProt P42898), the “dose-dependent thermal stabilisation call” value is inactive: 0.

As for NDUFS4 (UniProt O43181), the “dose-dependent thermal stabilisation call” value is inactive: 0.

On to NDUFB7 (UniProt P17568), for which the “dose-dependent thermal stabilisation call” value is inactive: 0.

In the case of NAT10 (UniProt Q9H0A0), the “dose-dependent thermal stabilisation call” value is inactive: 0.

Regarding NIPSNAP3A (UniProt Q9UFN0), the “dose-dependent thermal stabilisation call” value was inactive: 0.

With MTMR14 (UniProt Q8NCE2), the “dose-dependent thermal stabilisation call” value was inactive: 0.

Take MTFMT (UniProt Q96DP5): the “dose-dependent thermal stabilisation call” value was inactive: 0.

Turning to NADK (UniProt O95544), the “dose-dependent thermal stabilisation call” value is inactive: 0.

In the case of MTMR10 (UniProt Q9NXD2), the “dose-dependent thermal stabilisation call” value is inactive: 0.

For NARF (UniProt Q9UHQ1), the “dose-dependent thermal stabilisation call” value is inactive: 0.

Consider NDUFA2 (UniProt O43678), for which the “dose-dependent thermal stabilisation call” value is inactive: 0.
